Some of the results follow.
Each compound was assayed on T1, CTL2-GFP (C. trachomatis L2/434/Bu, GFP-expressing). Details: bulk GFP, single well; 28.5 h, 10 µM; inhibitor.
T1 construct: L2/434/Bu, GFP-expressing
Parameters: species or system HeLa; Intracellular C. trachomatis growth in HeLa cells, bulk GFP fluorescence relative to DMSO
For `O=C(O)COc1ccc(Br)cn1` [CBK026021], the “% of control remaining” value was 99.6422%. In the case of `c1ccc2oc(CN3CCC(N4CCCCC4)CC3)cc2c1` [CBK282052], the “% of control remaining” value is reported as 128.81%. `C=CCN1CCC(C(=O)NC(C)c2cc(OC)ccc2OC)CC1` (stereo not shown) [CBK148762] was tested, and the “% of control remaining” value was 105.998%. For `O=C(O)CCNS(=O)(=O)c1ccc2[nH]c(=O)[nH]c2c1` [CBK266906], the “% of control remaining” value was 153.008%. In the case of `Cc1nc2c(Oc3ncccn3)cccn2c1N(C)C(=O)C1CCCCC1` [CBK147161], the “% of control remaining” value is reported as 159.673%. For `O=S(=O)(Nc1ccc2[nH]ncc2c1)c1ccc(Br)cc1C(F)(F)F` [CBK062529], the “% of control remaining” value was 114.023%. In the case of `Cc1ccc2nc(-c3ccccc3)c(CN3CCCC3)c(O)c2c1` [CBK264736], the “% of control remaining” value is reported as 101.885%. For `Cc1ccccc1-c1nnc(SC(C)C)n1CCN(C)CC(F)(F)F` [CBK200090], the “% of control remaining” value was 100.551%. `O=C(NCCc1c[nH]c2ccccc12)c1nn(-c2ncccn2)c2ccccc12` [CBK048496] was tested, and the “% of control remaining” value was 128.675%. With `O=C(NCCCN1CCOCC1)c1ccc2nccnc2c1` [CBK268704] the “% of control remaining” value was 91.4224%. `CC(C)c1ccc(S(=O)(=O)NCc2ccc(F)c(F)c2F)cc1` [CBK044717] was tested, and the “% of control remaining” value was 83.7921%. With `CCCCc1cc(=O)[nH]c(N2CCOCC2)n1` [CBK003851] the “% of control remaining” value was 92.2984%. In the case of `O=C(NCC(c1ccco1)N1CCCC1)C1CCCCC1` (stereo not shown) [CBK304560], the “% of control remaining” value is reported as 159.262%. In the case of `O=C(CSc1nnc(-c2cccnc2)s1)Nc1ccc([N+](=O)[O-])cc1` [CBK268777], the “% of control remaining” value is reported as 114.47%. With `C#CCNC(=O)C1CCCN(c2nc3ccccc3n2CC)C1` (stereo not shown) [CBK282433] the “% of control remaining” value was 99.4988%. In the case of `Cc1nn(C)c(C)c1S(=O)(=O)n1ccn(-c2ccc(N(C)C)cc2)c1=O` [CBK106610], the “% of control remaining” value is reported as 100.114%. `COc1ccc(-c2cc(C(=O)Nc3nc4ccccc4[nH]3)cnc2-c2ccc(F)cc2)cn1` [CBK036617] was tested, and the “% of control remaining” value was 94.8178%. For `CC1CN(c2cc(CNCc3cnn4ccccc34)ccn2)CCO1` (stereo not shown) [CBK304018], the “% of control remaining” value was 112.808%. `OC(COc1c(Br)cccc1Br)CN1CCCCC1` (stereo not shown) [CBK003077T] was tested, and the “% of control remaining” value was 136.421%. For `CCN(CC)C(=O)C1CCCN(C(=O)NC(c2ccccc2)c2ccccc2)C1` (stereo not shown) [CBK156125], the “% of control remaining” value was 120.966%. In the case of `CCC(=O)Oc1ccc(/N=C2/NC(C)(C)O2)cc1` [CBK010922], the “% of control remaining” value is reported as 156.19%. In the case of `Cc1n[nH]c(C)c1C1COCCN1C(=O)c1cccc(F)c1` (stereo not shown) [CBK305105], the “% of control remaining” value is reported as 132.704%. `Cc1ccc(S(=O)(=O)c2ccc(C)c(S(=O)(=O)N3CCC(C)CC3)c2)cc1S(=O)(=O)N1CCC(C)CC1` [CBK261743] was tested, and the “% of control remaining” value was 99.8852%. For `O=C1COc2ccc(C(=O)CSc3nnc(C4CC4)n3C3CC3)cc2N1` [CBK297110], the “% of control remaining” value was 145.364%. With `O=S(=O)(N1CCCCC1)N1CCN(CC(O)COc2ccc(-c3ccccc3)cc2)CC1` (stereo not shown) [CBK269370] the “% of control remaining” value was 134.285%. With `CC1CCc2nn(CCNC(=O)c3ccco3)c(=O)cc2C1` (stereo not shown) [CBK284481] the “% of control remaining” value was 117.066%. In the case of `c1cc(-c2nccnc2Oc2ccc3c(c2)OCO3)ccn1` [CBK106726], the “% of control remaining” value is reported as 117.277%. With `Cc1ccc(Cl)c(OC(C)C(=O)N(CCCO)Cc2ccncc2)c1` (stereo not shown) [CBK305432] the “% of control remaining” value was 99.3088%. For `CC(C)CNc1nc(-c2cccc(N(C)C)c2)cnc1N` [CBK063870], the “% of control remaining” value was 135.949%. In the case of `O=C(NC(c1ccc(Cl)cc1)c1cnccn1)C1CCN(C(=O)c2ccccc2)CC1` (stereo not shown) [CBK059634], the “% of control remaining” value is reported as 144.102%. With `O=C(NCc1nc(-c2ccccc2)no1)C(c1cccs1)c1cccs1` [CBK286340] the “% of control remaining” value was 96.9089%. For `c1ccc(Oc2ccc(Nc3ccc(-c4cccc5cccnc45)cn3)cc2)cc1` [CBK037643], the “% of control remaining” value was 94.194%. `NCCCNc1ccc(-c2ccco2)cn1` [CBK036911] was tested, and the “% of control remaining” value was 162.156%. `CCCNC(=O)C1(Cc2ccccc2-c2ccccc2)CCN(C(=O)c2ccccc2)CC1` [CBK286275] was tested, and the “% of control remaining” value was 131.558%. With `CS(=O)(=O)CCC(C(=O)O)N1C(=O)c2ccc(C(=O)O)cc2C1=O` (stereo not shown) [CBK265719] the “% of control remaining” value was 179.154%. `CC(C)n1nccc1C(=O)NC1CCN(Cc2cccc(F)c2)CC1` [CBK282596] was tested, and the “% of control remaining” value was 122.938%. For `CCc1c[nH]c(SCC(=O)c2cc(C)n(C3CCS(=O)(=O)C3)c2C)n1` (stereo not shown) [CBK306486], the “% of control remaining” value was 122.848%. With `COc1cc2c(cc1OC)C(CCCC#N)=[N+](C)C(C)(C)C2` [CBK008807I] the “% of control remaining” value was 128.04%. With `CCOc1ccc2nc(NC(=O)c3nc(SCc4ccccc4)ncc3Cl)sc2c1` [CBK269109] the “% of control remaining” value was 135.793%. `O=C(O)c1cccc(N2C(=O)c3cccc4c(Cl)ccc(c34)C2=O)c1` [CBK299836] was tested, and the “% of control remaining” value was 134.436%. `COCCCNC(=O)C1CCN(c2nc3c(-c4cccc(C)c4)csc3c(=O)[nH]2)CC1` [CBK215630] was tested, and the “% of control remaining” value was 138.93%. `Cc1cc(NC(=O)CN2CCN(Cc3ccc4c(c3)CCO4)CC2)on1` [CBK305610] was tested, and the “% of control remaining” value was 142.737%. For `O=C1N=C(NC2CCCCCC2)SC1CC(=O)N1CCOC12CCCCC2` (stereo not shown) [CBK067355], the “% of control remaining” value was 137.829%. In the case of `CCN(CC)C(=O)CN1CCCN(c2cc(OCCN3C(=O)CCC3=O)ncn2)CC1` [CBK083266T], the “% of control remaining” value is reported as 140.927%. `CN(C)c1ncccc1OC1CCN(c2nnc(C(F)(F)F)s2)C1` (stereo not shown) [CBK304789] was tested, and the “% of control remaining” value was 142.157%. In the case of `O=C(CCCOc1ccc(Cl)cc1)n1ccn(CCc2cccs2)c1=O` [CBK106614], the “% of control remaining” value is reported as 125.182%. For `C=CCn1c(Cc2csc(NC(=O)c3ccc(C)cc3)n2)n[nH]c1=S` [CBK295292], the “% of control remaining” value was 183.115%. In the case of `Cc1cccc(-c2ccc(CC3(C(=O)NC(C)C)CCN(C(=O)C4CC4)CC3)cc2)c1` [CBK285757], the “% of control remaining” value is reported as 126.857%. For `COc1ccc(-c2n[nH]c(=S)n2CCC(=O)NCCc2cc(C)n(-c3ccccc3)c2C)cc1` [CBK295632], the “% of control remaining” value was 116.152%. In the case of `CC(Cn1cncn1)C(=O)N1CCc2sccc2C1C` (stereo not shown) [CBK282080], the “% of control remaining” value is reported as 125.674%. In the case of `COc1ccccc1-n1nc(-c2ccncc2)nc1C(C)NS(C)(=O)=O` (stereo not shown) [CBK306868], the “% of control remaining” value is reported as 87.3675%. With `O=c1c2ccccc2nc2n1CCN(Cc1ccccc1)CC2` [CBK284790] the “% of control remaining” value was 111.854%. `CS(=O)(=O)NC1CCN(C2CCc3c(Cl)cccc32)CC1` (stereo not shown) [CBK305252] was tested, and the “% of control remaining” value was 138.33%. For `O=[N+]([O-])c1nn(-c2ccc3c(c2)OCCO3)[n+]([O-])c1NCCN1CCN(c2ccccc2F)CC1` [CBK268314], the “% of control remaining” value was 52.4315%. With `COc1cc(CNCc2ccc(F)cc2)cc(Cl)c1OCC(N)=O` [CBK270256C] the “% of control remaining” value was 108.967%. For `CC(C)C(=O)Nc1nc2c([nH]c(=O)n2[C@H]2C[C@@H](O)[C@@H](CO)O2)c(=O)[nH]1` [CBK201202], the “% of control remaining” value was 165.501%. `CN1CCN(CCC(=O)N/N=C/c2c[nH]c3ccccc23)CC1` [CBK261502] was tested, and the “% of control remaining” value was 106.91%. In the case of `COc1ccccc1N1CCN(C(=O)Nc2cccnc2)CC1` [CBK155617], the “% of control remaining” value is reported as 91.8884%. In the case of `Cc1cnc2[nH]c(C3CCCN(C(=O)c4cn(C)nc4C)C3)cc2c1` (stereo not shown) [CBK285170], the “% of control remaining” value is reported as 80.7465%. With `COc1ccc(CCNC(=S)NN2CCN(C)CC2)cc1OC` [CBK266884] the “% of control remaining” value was 130.816%. In the case of `O=C1NC(=O)C(CCCCN2CCCc3ccccc32)N1` (stereo not shown) [CBK143965], the “% of control remaining” value is reported as 90.8597%. For `c1ccc(OCCN2CCC(Oc3cncc(OCCN4CCOCC4)n3)C2)cc1` (stereo not shown) [CBK084499], the “% of control remaining” value was 111.086%. In the case of `COc1ccc(C(=O)C2=C(O)C(=O)N(Cc3cccnc3)C2c2cccc(OC)c2OC)cc1C` (stereo not shown) [CBK264906], the “% of control remaining” value is reported as 135.82%. In the case of `O=C(CSc1ccc2nnc(-c3ccccc3)n2n1)NCc1ccco1` [CBK287514], the “% of control remaining” value is reported as 135.487%. With `COc1cc(CNc2ccccc2Cl)ccc1OCC(=O)O` [CBK287045] the “% of control remaining” value was 138.594%. `O=[N+]([O-])c1ccc(Sc2cccc(F)c2)nc1` [CBK002905] was tested, and the “% of control remaining” value was 106.427%. With `Cc1cccc(C)c1NC(=O)c1nccnc1C(=O)O` [CBK260915] the “% of control remaining” value was 108.11%. `COc1ccc(CNC(=O)c2sc3nc4c(c(C(F)(F)F)c3c2N)CCC4)cc1OC` [CBK074568] was tested, and the “% of control remaining” value was 91.8265%. With `CCn1cc(C(=O)N2CCOC(C(=O)O)C2)c(=O)c2ccc(C)nc21` (stereo not shown) [CBK307165] the “% of control remaining” value was 124.817%. In the case of `Cc1cc(Cl)c(S(=O)(=O)Nc2ccc(C#N)cc2)cc1OCC(N)=O` [CBK266560], the “% of control remaining” value is reported as 109.099%. `O=C(CN1CCCC1Cn1cccn1)N1CCCc2ccccc21` (stereo not shown) [CBK281971] was tested, and the “% of control remaining” value was 92.4732%. For `Cc1ccc(-n2c(=O)[nH]cc(C(=O)Nc3ccc(C)c(F)c3)c2=O)cc1C` [CBK287550], the “% of control remaining” value was 126.649%. For `Cc1ccccc1N1CCC(CNC(=O)CCn2nc(C)c(C)c2C)C1` (stereo not shown) [CBK307465], the “% of control remaining” value was 165.281%. `Cc1cccnc1C1(O)CCN(C(=O)Cc2ccccc2F)CC1` [CBK283617] was tested, and the “% of control remaining” value was 125.007%. For `COC(=O)c1ccc2c(=O)n(CC(C)O)c(SC3CCOC3=O)nc2c1` (stereo not shown) [CBK304997], the “% of control remaining” value was 119.364%. `CNC1CCN(S(=O)(=O)c2sc3ccc(C(C)C)cc3c2C)C1` (stereo not shown) [CBK170067] was tested, and the “% of control remaining” value was 106.891%. With `CC(CC(=O)O)CC(=O)Nc1ccccc1C(=O)O` (stereo not shown) [CBK265671] the “% of control remaining” value was 100%. `CCCCC(c1cccnc1)N(C)C(=O)c1cc(C)c(CC)n(C)c1=O` (stereo not shown) [CBK306999] was tested, and the “% of control remaining” value was 117.408%. `O=c1[nH]c2ncc(-c3cccnc3)nc2n1CCN1CCOCC1` [CBK065070] was tested, and the “% of control remaining” value was 101.518%.

Reference: article PMC12040169 (PLOS Biology, 2025)
